Measurements: PubChem BioAssay AID248 (DTP/NCI, 2004)
The list shows only some results of the screen, not a fair sample: it is rich in T/C values a quarter to a half above the control, in often repeated tests (any T/C) and in doses without a T/C. Further doses and runs are listed elsewhere. T/C: endpoint of the treated group in % of that of the vehicle group. Some doses have a count of surviving animals in place of a T/C: the source files T/C as zero there, which appears to mark a toxic dose or a test without result, not a measured value. Some doses without a T/C left all or most animals alive at the check, yet need not have been tolerated: the source hardly ever lists a survival T/C far under the control, and the zero likely stands for such cases as well. Counts of survivors are from the toxicity check (mostly the fifth day) where no day follows; animals may have died later. Schedule codes are those of the source, taken here to give the interval after Q, in days (D) or hours (H), and the number of doses after X. Some schedules carry Z or #; the key to these is not given. Some entries hold several experiments; the results are listed from low to high. For survival time, the PubChem record calls one and a half times the control and up active, and a quarter to a half above the control has no call in these data; cut-offs in other NCI protocols can differ. Some T/C values are followed by the survivors on the day toxicity was checked, most often the fifth; where none is given, no animal had died by that day.

System: L1210 leukemia ip in BDF1 mice, survival T/C
Test: NCI In Vivo Anticancer Drug Screen. Data for tumor model L1210 Leukemia (intraperitoneal) in B6D2F1 (BDF1) mice
Details: T/C endpoint: mean survival time, higher T/C = longer survival
[1] = dose: 66.0 mg/kg/injection, schedule: Q01DX015 (ip), vehicle: carboxymethylcellulose (CMC)
[2] = dose: 400.0 mg/kg/injection, schedule: Q01DX001 (ip), vehicle: carboxymethylcellulose (CMC)
[3] = dose: 200.0 mg/kg/injection, schedule: Q01DX001 (ip), vehicle: carboxymethylcellulose (CMC)
[4] = dose: 400.0 mg/kg/injection, schedule: Q04DX003 (ip), vehicle: saline
[5] = dose: 100.0 mg/kg/injection, schedule: Q04DX003 (ip), vehicle: saline
[6] = dose: 200.0 mg/kg/injection, schedule: Q04DX003 (ip), vehicle: saline
[7] = dose: 100.0 mg/kg/injection, schedule: Q04DX003 (ip), vehicle: saline with Tween-80
[8] = dose: 100.0 mg/kg/injection, schedule: Q01DX001 (ip), vehicle: saline
[9] = dose: 200.0 mg/kg/injection, schedule: Q01DX001 (ip), vehicle: saline
[10] = dose: 400.0 mg/kg/injection, schedule: Q01DX001 (ip), vehicle: saline

## NNc1ncnc2c1ncn2C1OC(CO)C(O)C1O (configuration not stated)
dose: 36.5 mg/kg/injection, schedule: Q01DX015 (ip), vehicle: gum acacia, evaluated on day 5
  T/C: 127 % of control
dose: 36.5 mg/kg/injection, schedule: Q01DX015 (ip), vehicle: gum acacia, evaluated on day 45
  T/C: 127 % of control
dose: 50.0 mg/kg/injection, schedule: Q01DX015 (ip), vehicle: carboxymethylcellulose (CMC)
  T/C: 135 % of control
dose: 56.0 mg/kg/injection, schedule: Q01DX015 (ip), vehicle: gum acacia, evaluated on day 5
  T/C: 126 % of control
dose: 56.0 mg/kg/injection, schedule: Q01DX015 (ip), vehicle: gum acacia, evaluated on day 45
  T/C: 126 % of control
[1]
  T/C: 136 % of control
  survivor count: 2 of 6
dose: 75.0 mg/kg/injection, schedule: Q01DX015 (ip), vehicle: carboxymethylcellulose (CMC)
  T/C: 131 % of control
dose: 83.0 mg/kg/injection, schedule: Q01DX015 (ip), vehicle: gum acacia, evaluated on day 5
  T/C: 136 % of control
dose: 83.0 mg/kg/injection, schedule: Q01DX015 (ip), vehicle: gum acacia, evaluated on day 45
  T/C: 136 % of control
dose: 100.0 mg/kg/injection, schedule: Q01DX015 (ip), vehicle: carboxymethylcellulose (CMC)
  T/C: 136 % of control
dose: 124.5 mg/kg/injection, schedule: Q01DX015 (ip), vehicle: gum acacia, evaluated on day 5
  T/C: 143 % of control
dose: 124.5 mg/kg/injection, schedule: Q01DX015 (ip), vehicle: gum acacia, evaluated on day 45
  T/C: 143 % of control
dose: 150.0 mg/kg/injection, schedule: Q01DX015 (ip), vehicle: carboxymethylcellulose (CMC)
  T/C: 136 % of control
dose: 186.75 mg/kg/injection, schedule: Q01DX015 (ip), vehicle: gum acacia
  survivor count: 8 of 10
dose: 200.0 mg/kg/injection, schedule: Q01DX015 (ip), vehicle: carboxymethylcellulose (CMC)
  survivor count: 0 of 6
dose: 250.0 mg/kg/injection, schedule: Q01DX015 (ip), vehicle: carboxymethylcellulose (CMC)
  survivor count: 0 of 6
[2]
  survivor count: 2 of 4

## O=C(Cl)/C=C/c1c(Cl)cccc1Cl
dose: 400.0 mg/kg/injection, schedule: Q04DX003 (ip), vehicle: Klucel (hydroxypropylcellulose) (HPC)
  survivor count: 0 of 6

## Cc1ccccc1SCN(CSc1ccccc1C)C(C)(C)CC(C)(C)C
[3]
  survivor count: 2 of 4
[2]
  survivor count: 0 of 4

## C[n+]1ccccc1/C=C/c1csc2ccccc12
dose: 100.0 mg/kg/injection, schedule: Q01DX001 (ip), vehicle: carboxymethylcellulose (CMC)
  survivor count: 0 of 4
[3]
  survivor count: 0 of 4
[2]
  survivor count: 1 of 4

## NC1=CCNC(=O)N1c1ccccc1
dose: 200.0 mg/kg/injection, schedule: Q01DX Z (ip), vehicle: methylcellulose (MC)
  survivor count: 4 of 6

## OC(C[n+]1ccccc1)c1c[nH]c2ccccc12 (configuration not stated)
dose: 150.0 mg/kg/injection, schedule: Q01DX001 (ip), vehicle: other
  survivor count: 3 of 6
dose: 300.0 mg/kg/injection, schedule: Q01DX001 (ip), vehicle: other
  survivor count: 0 of 6

## CC[S+](CC)CC
[4]
  survivor count: 1 of 6

## Cc1cc([N+](=O)[O-])ccc1N=O
dose: 100.0 mg/kg/injection, schedule: Q01DX009 (ip), vehicle: saline with Tween-80
  survivor count: 5 of 6
dose: 200.0 mg/kg/injection, schedule: Q01DX009 (ip), vehicle: saline with Tween-80
  survivor count: 6 of 6
dose: 400.0 mg/kg/injection, schedule: Q01DX009 (ip), vehicle: saline with Tween-80
  survivor count: 6 of 6

## CC(C)(C)c1nc2ccc([N+](=O)[O-])cc2[nH]1
dose: 75.0 mg/kg/injection, schedule: Q01DX009 (ip), vehicle: other
  survivor count: 6 of 6
dose: 150.0 mg/kg/injection, schedule: Q01DX009 (ip), vehicle: other
  survivor count: 5 of 6
dose: 300.0 mg/kg/injection, schedule: Q04DX003 (ip), vehicle: other
  survivor count: 2 of 6

## CCOP(=O)(OCC)C1c2cc(Cl)ccc2-c2c(Cl)cc(Cl)cc21 (configuration not stated)
dose: 75.0 mg/kg/injection, schedule: Q01DX001 (ip), vehicle: saline
  survivor count: 0 of 6
dose: 150.0 mg/kg/injection, schedule: Q01DX001 (ip), vehicle: saline
  survivor count: 0 of 6
dose: 300.0 mg/kg/injection, schedule: Q01DX001 (ip), vehicle: saline
  survivor count: 0 of 6

## Cc1ccc(C2CCCN2C)cc1 (configuration not stated)
dose: 200.0 mg/kg/injection, schedule: Q01DX001 (ip), vehicle: acetone
  survivor count: 0 of 6
dose: 400.0 mg/kg/injection, schedule: Q01DX001 (ip), vehicle: acetone
  survivor count: 0 of 6

## N#CC1(C#N)OC(C#N)(C#N)C2C1C=CC1C2C1(C#N)C#N (configuration not stated)
dose: 100.0 mg/kg/injection, schedule: Q01DX001 (ip), vehicle: saline with Tween-80
  survivor count: 0 of 3
dose: 200.0 mg/kg/injection, schedule: Q01DX001 (ip), vehicle: saline with Tween-80
  survivor count: 0 of 3
dose: 400.0 mg/kg/injection, schedule: Q01DX001 (ip), vehicle: saline with Tween-80
  survivor count: 0 of 3

## NS(=O)(=O)O.[Ni]
dose: 25.0 mg/kg/injection, schedule: Q04DX003 (ip), vehicle: saline
  T/C: 137 % of control [5 of 6 alive]
[5]
  survivor count: 1 of 6 and 2 of 6
[6]
  survivor count: 0 of 6
[4]
  survivor count: 0 of 6

## CC[N+](CC)(CC)CCCCC[N+](CC)(CC)CC
dose: 50.0 mg/kg/injection, schedule: Q01DX009 (ip), vehicle: water
  survivor count: 0 of 6
[7]
  survivor count: 0 of 6
[5]
  survivor count: 2 of 6
dose: 100.0 mg/kg/injection, schedule: Q04DX003 (ip), vehicle: water
  survivor count: 0 of 6
[6]
  survivor count: 0 of 6
dose: 200.0 mg/kg/injection, schedule: Q04DX003 (ip), vehicle: water
  survivor count: 0 of 6
[4]
  survivor count: 0 of 6
dose: 400.0 mg/kg/injection, schedule: Q04DX003 (ip), vehicle: water
  survivor count: 0 of 6

## CCCCCCCCCCCCCCCC[N+]1(C)CCS(C)(OS(=O)(=O)OC)CC1 (configuration not stated)
[8]
  survivor count: 0 of 3
[9]
  survivor count: 0 of 3
[10]
  survivor count: 0 of 3

## C[N+](C)(C)C1(Cc2ccc(Br)cc2)c2ccccc2-c2ccccc21
dose: 50.0 mg/kg/injection, schedule: Q04DX003 (ip), vehicle: saline with Tween-80
  survivor count: 6 of 6
[7]
  survivor count: 0 of 6

## COc1ccc2c(c1)c(C)cc[n+]2C
dose: 75.0 mg/kg/injection, schedule: Q01DX009 (ip), vehicle: saline
  survivor count: 0 of 6
[8]
  survivor count: 1 of 7
dose: 115.0 mg/kg/injection, schedule: Q01DX009 (ip), vehicle: saline
  survivor count: 0 of 6
dose: 170.0 mg/kg/injection, schedule: Q01DX009 (ip), vehicle: saline
  survivor count: 0 of 6
[9]
  survivor count: 0 of 7
[10]
  survivor count: 0 of 7

## CCN1CCC(CCOC)(CN2c3ccccc3Sc3ccc(Cl)cc32)C1 (configuration not stated)
[6]
  survivor count: 4 of 6
[4]
  survivor count: 0 of 6

## NCCOCCOCCN
dose: 200.0 mg/kg/injection, schedule: Q01DX009 (ip), vehicle: saline
  survivor count: 0 of 3

## O=C(O)c1ccc(CO)o1
dose: 200.0 mg/kg/injection, schedule: Q01DX009 (ip), vehicle: Klucel (hydroxypropylcellulose) (HPC)
  survivor count: 4 of 6

## CN(C)N=C1CCC(=NN(C)C)CC1
[4]
  survivor count: 0 of 6

## N#CCCP(CCC#N)CCCCCCP(CCC#N)CCC#N
dose: 200.0 mg/kg/injection, schedule: Q04DX003 (ip), vehicle: saline with Tween-80
  survivor count: 3 of 6
dose: 400.0 mg/kg/injection, schedule: Q04DX003 (ip), vehicle: saline with Tween-80
  survivor count: 0 of 6
